Experimental data: publication PMC4764323
Where a chain is given by its changes, count along the chain named. Names may count otherwise. Results are given in words; binding and its absence hold for the method and conditions named. In cells and extracts the contact can be indirect. Some binding calls cover weakened binding; strength is not graded here.

Amino acid sequences for entries named in this document (tags omitted). Residues count along the entry.
UniProt P22607, residues 23-806: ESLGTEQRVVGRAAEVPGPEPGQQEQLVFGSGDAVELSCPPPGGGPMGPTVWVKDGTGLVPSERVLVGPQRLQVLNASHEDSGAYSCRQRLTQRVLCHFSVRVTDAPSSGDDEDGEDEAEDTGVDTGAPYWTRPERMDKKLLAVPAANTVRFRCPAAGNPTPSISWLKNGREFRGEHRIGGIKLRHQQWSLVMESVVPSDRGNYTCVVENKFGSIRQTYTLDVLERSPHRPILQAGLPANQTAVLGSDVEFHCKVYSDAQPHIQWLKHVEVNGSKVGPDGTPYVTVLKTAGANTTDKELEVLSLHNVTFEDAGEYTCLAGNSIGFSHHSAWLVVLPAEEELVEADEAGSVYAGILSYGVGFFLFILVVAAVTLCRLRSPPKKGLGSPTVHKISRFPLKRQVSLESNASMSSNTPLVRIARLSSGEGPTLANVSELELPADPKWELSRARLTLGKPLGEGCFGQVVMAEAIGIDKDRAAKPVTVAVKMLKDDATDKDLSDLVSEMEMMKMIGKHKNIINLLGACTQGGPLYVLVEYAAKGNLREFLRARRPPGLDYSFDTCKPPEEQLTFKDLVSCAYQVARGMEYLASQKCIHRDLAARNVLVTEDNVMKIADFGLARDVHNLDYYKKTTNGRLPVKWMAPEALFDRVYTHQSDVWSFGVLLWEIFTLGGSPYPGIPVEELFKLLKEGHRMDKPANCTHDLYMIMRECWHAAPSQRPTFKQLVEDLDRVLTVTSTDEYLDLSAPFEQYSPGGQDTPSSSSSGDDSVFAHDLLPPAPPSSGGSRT

B1: Leg1a (liver-enriched gene 1a protein), secreted from transfected 293T cells (protein, UniProt A5PF61 23-364)
chain: AVVTENGLPIQWGKAPSDLSHLPISDTGVQVNPWDYSQRMTMYKMLINATNAYMSSMGPGEQENPLWSLPLQLGWKLKSGRLADPTLDSSSTCGSEASDPVCISPLSWFACVNYYLSVLPFLAAVETGVVSSGGHQVLIQVPAEVAQDYCSSYSDCSTKHPNAMAKWHLFFQSLRQVSQSEDSDFNKKDSILGLMWAAEEESLQTASGACTERQKLYSSPEVSFQQSWLNSAAFVSAAHFHANIERSEKFMAPLPSRVLQEADSPPNIADLSTEENHTLYIFGWMNSVNQLLGGSLVNLWRKAMCSAQAREKGQALLHDLILDPKFPGSSLWSILSEMSTSC
modifications: N-glycosylation at N70
B2: Leg1a^N70A, secreted from transfected 293T cells (protein, UniProt A5PF61 23-364)
chain: B1 chain with N48A

Biological target: FLAG-tagged FGFR3 on transfected 293T cells (UniProt P22607)
Assay: co-IP; culture medium of 293T cells transfected with leg1a or leg1a^N70A plasmid incubated with 293T cells expressing FLAG-FGFR3 at 4°C for one hour; cells washed with PBS, lysed in NP40 buffer; IP with anti-FLAG antibody, Leg1 detected with the Leg1 antibody

Binder	binding
B1	binds
B2	no binding
